Measurements reported in PubChem BioAssay AID743121 (NCATS, 2013).

Screen: 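Partners whose loss is lethal together with topoisomerase I blockade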 (primary screen)
Cell system: MDA-MB-231 cells, a human breast cancer line
Knock-down reagent: single siRNA against human genes, 20 nM siRNA (0.8 pmol per well)
Duration: 120 h (drug added 48 h after transfection, read 72 h later)
Challenge: camptothecin 20 nM (about EC30) for 72 h; vehicle 0.1% DMSO in parallel plates
Measurement: 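Cell viability by ATP luminescence (CellTiter-Glo) as % of non-targeting siRNA wells, and the log2 ratio of viability without drug over viability with camptothecin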
Reading the numbers: log2 vehicle/camptothecin viability: higher = stronger sensitisation to camptothecin; viability with camptothecin and viability without drug: higher = more viable cells
Call rule: 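Active genes have an RSA gene-level p-value below 0.001, computed from the ratios of their separate siRNAs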
Shown is an unselected part of about 26,000 reagents. 167 of all reagents (0.63%) were called active. 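Calls are per gene from RSA p-values that are not deposited; an individual active-marked siRNA can sensitise only weakly.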 The numbers tell different reagents against one gene apart.

target gene | siRNA no. | log2 vehicle/camptothecin viability | viability with camptothecin (% of control) | viability without drug (% of control) | Outcome
RNF10 (GeneID 9921) | 1 | -0.409 | 75.5 | 56.9 | inactive
RNF10 (GeneID 9921) | 2 | -0.464 | 45.1 | 32.7 | inactive
RNF10 (GeneID 9921) | 3 | -0.516 | 43.6 | 30.5 | inactive
PSMA6 (GeneID 5687) | 1 | -0.106 | 27.9 | 25.9 | inactive
PSMA6 (GeneID 5687) | 2 | -0.377 | 26.8 | 20.6 | inactive
PSMA6 (GeneID 5687) | 3 | 0.244 | 9.17 | 10.9 | inactive
PSMA6 (GeneID 5687) | 4 | -0.423 | 24.1 | 18 | inactive
GINS2 (GeneID 51659) | 1 | -0.271 | 96.3 | 79.8 | inactive
GINS2 (GeneID 51659) | 2 | -0.321 | 57.3 | 45.9 | inactive
GINS2 (GeneID 51659) | 3 | 0.105 | 46.2 | 49.7 | inactive
GINS2 (GeneID 51659) | 4 | -0.278 | 74.1 | 61.1 | inactive
PEAK1 (GeneID 79834) | 1 | 0.0661 | 72.1 | 75.5 | inactive
PEAK1 (GeneID 79834) | 2 | 0.345 | 21.6 | 27.4 | inactive
PEAK1 (GeneID 79834) | 3 | -0.382 | 101 | 77.7 | inactive
PEAK1 (GeneID 79834) | 4 | -0.0457 | 83.1 | 80.5 | inactive
PEAK1 (GeneID 79834) | 5 | -0.172 | 99.6 | 88.4 | inactive
MMP12 (GeneID 4321) | 1 | 0.2 | 104 | 120 | inactive
MMP12 (GeneID 4321) | 2 | 0.00609 | 84.7 | 85.1 | inactive
MMP12 (GeneID 4321) | 3 | 0.0553 | 106 | 111 | inactive
MMP12 (GeneID 4321) | 4 | 0.322 | 73.1 | 91.5 | inactive
RSKR (GeneID 124923) | 1 | -0.0274 | 87.7 | 86.1 | inactive
RSKR (GeneID 124923) | 2 | 0.323 | 45.1 | 56.4 | inactive
RSKR (GeneID 124923) | 3 | -0.31 | 25.6 | 20.7 | inactive
RSKR (GeneID 124923) | 4 | 0.0226 | 93.7 | 95.1 | inactive
BET1 (GeneID 10282) | 1 | -0.231 | 52.7 | 44.9 | inactive
BET1 (GeneID 10282) | 2 | 0.413 | 22.3 | 29.6 | inactive
BET1 (GeneID 10282) | 3 | -0.2 | 112 | 97.6 | inactive
BET1 (GeneID 10282) | 4 | -0.741 | 84.8 | 50.7 | inactive
RAMP2 (GeneID 10266) | 1 | 0.00855 | 45.1 | 45.4 | inactive
RAMP2 (GeneID 10266) | 2 | 0.306 | 50.2 | 62.1 | inactive
RAMP2 (GeneID 10266) | 3 | 0.0376 | 60.3 | 61.9 | inactive

Next part (6 carried over from the part before).
target gene | siRNA no. | log2 vehicle/camptothecin viability | viability with camptothecin (% of control) | viability without drug (% of control) | Outcome
BET1 (GeneID 10282) | 2 | 0.413 | 22.3 | 29.6 | inactive
BET1 (GeneID 10282) | 3 | -0.2 | 112 | 97.6 | inactive
BET1 (GeneID 10282) | 4 | -0.741 | 84.8 | 50.7 | inactive
RAMP2 (GeneID 10266) | 1 | 0.00855 | 45.1 | 45.4 | inactive
RAMP2 (GeneID 10266) | 2 | 0.306 | 50.2 | 62.1 | inactive
RAMP2 (GeneID 10266) | 3 | 0.0376 | 60.3 | 61.9 | inactive
TXNDC11 (GeneID 51061) | 1 | -0.154 | 68.8 | 61.8 | inactive
TXNDC11 (GeneID 51061) | 2 | -0.681 | 30.1 | 18.8 | inactive
TXNDC11 (GeneID 51061) | 3 | -0.122 | 78.1 | 71.8 | inactive
SLC6A7 (GeneID 6534) | 1 | 0.43 | 68.3 | 92 | inactive
SLC6A7 (GeneID 6534) | 2 | -0.213 | 56.8 | 49 | inactive
SLC6A7 (GeneID 6534) | 3 | -0.235 | 99.6 | 84.7 | inactive
SLC6A7 (GeneID 6534) | 4 | 0.619 | 42.2 | 64.8 | inactive
METTL5 (GeneID 29081) | 1 | 0.00204 | 87.3 | 87.4 | inactive
METTL5 (GeneID 29081) | 2 | 0.583 | 53.9 | 80.7 | inactive
METTL5 (GeneID 29081) | 3 | 0.309 | 69.2 | 85.7 | inactive
METTL5 (GeneID 29081) | 4 | -0.358 | 59.3 | 46.3 | inactive
PPARG (GeneID 5468) | 1 | -0.0842 | 100 | 94.8 | inactive
PPARG (GeneID 5468) | 2 | -0.414 | 112 | 83.8 | inactive
PPARG (GeneID 5468) | 3 | -0.148 | 74.9 | 67.6 | inactive
PPARG (GeneID 5468) | 4 | -0.431 | 69.2 | 51.3 | inactive
PPARG (GeneID 5468) | 5 | 1.57 | 30.5 | 90.8 | inactive
